Source: US20040077640A1 (priority 2000, published 2004)
Counter-ions that a name gives are not always drawn. Some of these results come from one statement about several compounds together. At least one compound was matched to its structure with a doubt left.

Tested on: voltage-dependent sodium channels
Assay type: binding
Conditions: displacement of [3H] batrachotoxin-A 20-alpha benzoate (5 nM) in homogenate of rat cerebral cortex, 1 hour 30 minutes at 25° C.

Row | SMILES | IC50 [µM]
1 | CCCCOC(=O)N1CCC(c2nc(-c3ccc(-c4ccc(Br)cc4)cc3)c[nH]2)CC1 [Example 1, butyl 4-[4-(4′-bromo-1,1′-biphenyl-4-yl)-1H-imidazol-2-yl]piperidine-1-carboxylate] | ≤ 1
2 | CC(C)(C)OC(=O)N1CCC(c2nc(-c3ccc(-c4ccccc4)cc3)c[nH]2)CC1 [Example 2, tert-butyl 4-[4-(1,1′-biphenyl-4-yl)-1H-imidazol-2-yl]piperidine-1-carboxylate] | ≤ 1
3 | c1ccc(-c2ccc(-c3c[nH]c(C4CCNCC4)n3)cc2)cc1 [Example 3, 4-[4-(1,1′-biphenyl-4-yl)-1H-imidazol-2-yl]piperidine hydrochloride] | ≤ 1
4 | Fc1ccc(-c2c[nH]c(C3CCN(CC4CCCCC4)CC3)n2)cc1 [Example 5, 1-(cyclohexylmethyl)-4-[4-(4-fluorophenyl)-1H-imidazol-2-yl]piperidine] | ≤ 1
5 | CCCCNC(=O)N1CCC(c2nc(-c3ccc(-c4ccccc4)cc3)c[nH]2)CC1 [Example 6, 4-[4-(1,1′-biphenyl-4-yl)-1H-imidazol-2-yl]-N-butylpiperidine-1-carboxamide] | ≤ 1
6 | CCCCNC(=S)N1CCC(c2nc(-c3ccc(-c4ccccc4)cc3)c[nH]2)CC1 [Example 7, 4-[4-(1,1′-biphenyl-4-yl)-1H-imidazol-2-yl]-N-butylpiperidine-1-carbothioamide] | ≤ 1
7 | CCOC(=O)N1CCC(c2nc(-c3ccc(-c4ccccc4)cc3)c[nH]2)CC1 [Example 8, ethyl 4-[4-(1,1′-biphenyl-4-yl)-1H-imidazol-2-yl]piperidine-1-carboxylate] | ≤ 1
8 | CCCCC(=O)N1CCC(c2nc(-c3ccc(-c4ccccc4)cc3)c[nH]2)CC1 [Example 9, 4-[4-(1,1′-biphenyl-4-yl)-1H-imidazol-2-yl]-1-pentanoylpiperidine] | ≤ 1
9 | c1ccc(CN2CCC(c3nc(-c4ccc(-c5ccccc5)cc4)c[nH]3)CC2)cc1 [Example 12, 1-benzyl4-[4-(1,1′-biphenyl-4-yl)-1H-imidazol-2-yl]piperidine] | ≤ 1
10 | CCCCOC(=O)N1CCC(c2nc(-c3ccc(C(C)(C)C)cc3)c[nH]2)CC1 [Example 13, butyl 4-[4-(4-tert-butylphenyl)-1H-imidazol-2-yl]piperidine-1-carboxylate] | ≤ 1
11 | Fc1ccc(-c2c[nH]c(C3CCCN(Cc4ccccc4)C3)n2)cc1 (stereo not shown) [Example 14, 1-benzyl-3-[4-(4-fluorophenyl)-1H-imidazol-2-yl]piperidine] | ≤ 1
12 | Fc1ccc(-c2c[nH]c(C3CCCCN3Cc3ccccc3)n2)cc1 (stereo not shown) [Example 17, 1-benzyl-2-[4-(4-fluorophenyl)-1H-imidazol-2-yl]piperidine] | ≤ 1
13 | CCCCCCN1CCC(c2nc(-c3ccc(-c4ccccc4)cc3)c[nH]2)CC1 [Example 19, 4-[4-(1,1′-biphenyl-4-yl)-1H-imidazol-2-yl]-1-hexylpiperidine] | ≤ 1
14 | CCCCOC(=O)N1CCC(c2nc(-c3ccc(-c4ccccc4)cc3)c[nH]2)CC1 [Example 20, butyl 4-[4-(1,1′-biphenyl-4-yl)-1H-imidazol-2-yl]piperidine-1-carboxylate] | ≤ 1
15 | c1ccc(-c2ccc(-c3c[nH]c(C4CCCCN4)n3)cc2)cc1 (stereo not shown) [Example 21, 2-[4-(1,1′-biphenyl-4-yl)-1H-imidazol-2-yl]piperidine] | ≤ 1
16 | c1ccc(-c2ccc(-c3c[nH]c(C4CCCNC4)n3)cc2)cc1 (stereo not shown) [Example 22, 3-[4-(1,1′-biphenyl-4-yl)-1H-imidazol-2-yl]piperidine] | ≤ 1
17 | CCCCOC(=O)N1CCCCC1c1nc(-c2ccc(-c3ccccc3)cc2)c[nH]1 (stereo not shown) [Example 23, butyl 2-[4-(1,1′-biphenyl-4-yl)-1H-imidazol-2-yl]piperidine-1-carboxylate] | ≤ 1
18 | CCCCOC(=O)N1CCCC(c2nc(-c3ccc(-c4ccccc4)cc3)c[nH]2)C1 (stereo not shown) [Example 24, butyl 3-[4-(1,1′-biphenyl-4-yl)-1H-imidazol-2-yl]piperidine-1-carboxylate] | ≤ 1
19 | CCCCOC(=O)N1CCC(c2nc(-c3ccc(OC)cc3)c[nH]2)CC1 [Example 26, butyl 4-[4-(4-methoxyphenyl)-1H-imidazol-2-yl]piperidine-1-carboxylate] | ≤ 1
